According to paper PMC4933242, “Low or No Inhibitory Potency of the Canonical Galectin Carbohydrate-binding Site by Pectins and Galactomannans” (The Journal of Biological Chemistry, 2016):
Results are given in words; binding and its absence hold for the method and conditions named. Some results given as binding are weak or reduced against the parent protein; the word gives no strength.

Chains of the proteins cited; added tags and fusions are not shown.
UniProt P17931: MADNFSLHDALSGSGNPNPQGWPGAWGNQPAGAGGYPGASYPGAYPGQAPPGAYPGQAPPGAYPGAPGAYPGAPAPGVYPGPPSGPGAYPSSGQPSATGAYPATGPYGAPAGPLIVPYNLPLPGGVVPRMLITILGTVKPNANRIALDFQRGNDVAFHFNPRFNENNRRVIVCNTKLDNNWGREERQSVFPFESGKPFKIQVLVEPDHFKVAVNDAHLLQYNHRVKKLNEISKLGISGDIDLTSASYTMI
UniProt P09382: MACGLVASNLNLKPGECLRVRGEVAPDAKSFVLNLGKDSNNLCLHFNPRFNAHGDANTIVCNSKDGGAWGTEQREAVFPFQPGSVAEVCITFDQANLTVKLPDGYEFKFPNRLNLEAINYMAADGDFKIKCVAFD

Assays:
galectin-3 = galectin-3 (UniProt P17931); test: turbidimetry (precipitation); absorption at 350 nm of galectin-ASF precipitates; galectin-1- or galectin-3-induced aggregation of ASF with increasing concentrations of Davanat; both purified
galectin-1 wild type = galectin-1 wild type (UniProt P09382); test: as above

binding (galectin-3): binds
binding (galectin-1 wild type): binds
B1: asialofetuin (protein, UniProt P12763 19-359)
chain: IPLDPVAGYKEPACDDPDTEQAALAAVDYINKHLPRGYKHTLNQIDSVKVWPRRPTGEVYDIEIDTLETTCHVLDPTPLANCSVRQQTQHAVEGDCDIHVLKQDGQFSVLFTKCDSSPDSAEDVRKLCPDCPLLAPLNDSRVVHAVEVALATFNAESNGSYLQLVEISRAQFVPLPVSVSVEFAVAATDCIAKEVVDPTKCNLLAEKQYGFCKGSVIQKALGGEDVRVTCTLFQTQPVIPQPQPDGAEAEAPSAVPDAAGPTPSAAGPPVASVVVGPSVVAVPLPLHRAHYDLRHTFSGVASVESSSGEAFHVGKTPIVGQPSIPGGPVRLCPGRIRYFKI
